Results on ten compounds are retold here after PubChem BioAssay AID330 (DTP/NCI, 2004).

The list shows only some results of the screen, not a fair sample: it covers a few groups of compounds. Other doses and runs of a compound may be missing. T/C: endpoint of the treated group in % of that of the vehicle group. Some doses have a count of surviving animals in place of a T/C: the source holds a T/C of zero for them, seemingly a mark for toxic or unscored doses. Some survivor counts are full or nearly so, which does not show that the dose was tolerated: survival well below the control is almost never listed, so the zero probably covers shortened survival too. Survivors were counted at the toxicity check, usually on the fifth day, unless a day is given; later deaths do not show. Schedule codes are those of the source, taken here to give the interval after Q, in days (D) or hours (H), and the number of doses after X. For survival time, this PubChem deposit counts one and a half times the control or more as active, and values a quarter to a half above the control carry no call in these data; other NCI protocols may use other cut-offs. Some entries were tested several times; their values stand side by side, smallest first. Some T/C values are marked as having no survivor count here; that says nothing about deaths at the dose. Some metal complexes and salts are drawn in pieces, as in the source, so charges may not balance. Some T/C values carry the count of animals alive at the toxicity check (mostly the fifth day); where neither a count nor a note follows, no animal had died by that day.

The subject of this assay is P388 leukemia ip, CD2F1 mice, survival T/C. The assay can be described thus: NCI In Vivo Anticancer Drug Screen. Data for tumor model P388 Leukemia (intraperitoneal) in CD2F1 (CDF1) mice. The note with it: T/C endpoint: median survival time, higher T/C = longer survival.
Where [1] appears, read: dose: 200.0 mg/kg/injection, schedule: Q04DX003 (ip), vehicle: saline with Tween-80.

`COc1cc2c(c3oc4cccc(O)c4c(=O)c13)[C@@H]1C=CO[C@@H]1O2`: the T/C is, setting by setting: (dose: 0.5 mg/kg/injection, schedule: Q01DX009 (ip), vehicle: saline) 104 % of control; (dose: 1.0 mg/kg/injection, schedule: Q01DX009 (ip), vehicle: saline) 118 % of control; (dose: 2.0 mg/kg/injection, schedule: Q01DX009 (ip), vehicle: saline) 118 % of control [5 of 6 alive]; (dose: 4.0 mg/kg/injection, schedule: Q01DX009 (ip), vehicle: saline) 122 % of control; (dose: 7.5 mg/kg/injection, schedule: Q01DX005 (ip), vehicle: saline with Tween-80) 131 % of control; (dose: 7.5 mg/kg/injection, schedule: Q01DX005 (iv), vehicle: saline with Tween-80) 104 % of control. The T/C is, setting by setting: (dose: 8.0 mg/kg/injection, schedule: Q01DX009 (ip), vehicle: saline) 127 % of control; (dose: 15.0 mg/kg/injection, schedule: Q01DX005 (ip), vehicle: saline with Tween-80) 133 % of control; (dose: 15.0 mg/kg/injection, schedule: Q01DX005 (iv), vehicle: saline with Tween-80) 100 % of control; (dose: 16.0 mg/kg/injection, schedule: Q01DX009 (ip), vehicle: saline) 159 % of control; (dose: 30.0 mg/kg/injection, schedule: Q01DX005 (ip), vehicle: saline with Tween-80) 169 % of control; (dose: 30.0 mg/kg/injection, schedule: Q01DX005 (iv), vehicle: saline with Tween-80) 101 % of control. Further, the T/C (dose: 32.0 mg/kg/injection, schedule: Q01DX009 (ip), vehicle: saline) was 172 % of control; the T/C (dose: 50.0 mg/kg/injection, schedule: Q04DX003 (ip), vehicle: saline with Tween-80) was 158 % of control; the T/C (dose: 60.0 mg/kg/injection, schedule: Q01DX005 (ip), vehicle: saline with Tween-80) was 196 % of control; the T/C (dose: 60.0 mg/kg/injection, schedule: Q01DX005 (iv), vehicle: saline with Tween-80) was 115 % of control; the T/C (dose: 100.0 mg/kg/injection, schedule: Q04DX003 (ip), vehicle: saline with Tween-80) is 163 and 192 % of control; the T/C (dose: 120.0 mg/kg/injection, schedule: Q01DX005 (iv), vehicle: saline with Tween-80) is 100 % of control [4 of 6 alive]. Further, under setting [1], the T/C is 143 % of control. Moreover, the survivor count (dose: 120.0 mg/kg/injection, schedule: Q01DX005 (ip), vehicle: saline with Tween-80) was 6 of 6; the survivor count under setting [1] is given as 4 of 6; the survivor count (dose: 400.0 mg/kg/injection, schedule: Q04DX003 (ip), vehicle: saline with Tween-80) was 1 of 6.

As to `[Co].[N-]=[N+]=N.[N-]=[N+]=N.[N-]=[N+]=N.[NH-]CC[N-]CC[NH-]`, the T/C was 98 % of control [survivor count not shown] (dose: 6.25 mg/kg/injection, schedule: Q01DX009 (ip), vehicle: DMSO) and 93 % of control [survivor count not shown] (dose: 12.5 mg/kg/injection, schedule: Q01DX009 (ip), vehicle: DMSO).

In the case of `C1CNNCCNN1.O=[N+]([O-])c1cc([N+](=O)[O-])c(O)c([N+](=O)[O-])c1`, the T/C is, setting by setting: (dose: 50.0 mg/kg/injection, schedule: Q01DX001 (ip), vehicle: Klucel (hydroxypropylcellulose) (HPC)) 98 % of control [survivor count not shown]; (dose: 100.0 mg/kg/injection, schedule: Q01DX001 (ip), vehicle: Klucel (hydroxypropylcellulose) (HPC)) 103 % of control [survivor count not shown]; (dose: 200.0 mg/kg/injection, schedule: Q01DX001 (ip), vehicle: Klucel (hydroxypropylcellulose) (HPC)) 95 % of control [survivor count not shown].

Consider `O=C1C=C(N(CCCl)CCCl)C(=O)C=C1Cl`, for which the T/C (dose: 100.0 mg/kg/injection, schedule: Q04DX003 (ip), vehicle: Klucel (hydroxypropylcellulose) (HPC)) was 123 % of control [5 of 6 alive]; the T/C (dose: 200.0 mg/kg/injection, schedule: Q04DX003 (ip), vehicle: Klucel (hydroxypropylcellulose) (HPC)) was 136 % of control; the T/C (dose: 400.0 mg/kg/injection, schedule: Q04DX003 (ip), vehicle: Klucel (hydroxypropylcellulose) (HPC)) was 144 % of control.

Regarding `CN(C)c1ccc(CN2CCCN(Cc3ccc(N(C)C)cc3)P2(=O)Cl)cc1`, the T/C by setting is: (dose: 25.0 mg/kg/injection, schedule: Q01DX005 (ip), vehicle: saline) 101 % of control; (dose: 50.0 mg/kg/injection, schedule: Q01DX005 (ip), vehicle: saline) 103 % of control; (dose: 100.0 mg/kg/injection, schedule: Q01DX005 (ip), vehicle: saline) 104 % of control; (dose: 200.0 mg/kg/injection, schedule: Q01DX005 (ip), vehicle: saline) 101 % of control.

Turning to `O=[N+]([O-])C(F)(COC(=S)OCC(F)([N+](=O)[O-])[N+](=O)[O-])[N+](=O)[O-]`, the T/C reads like this: (dose: 100.0 mg/kg/injection, schedule: Q04DX003 (ip), vehicle: saline) 98 % of control; (dose: 200.0 mg/kg/injection, schedule: Q04DX003 (ip), vehicle: saline) 98 % of control; (dose: 400.0 mg/kg/injection, schedule: Q04DX003 (ip), vehicle: saline) 100 % of control.

On to `CN=C(NP(=O)(OC)OC)OC`, for which the T/C reads like this: (dose: 12.5 mg/kg/injection, schedule: Q01DX009 (ip), vehicle: water) 90 % of control; (dose: 25.0 mg/kg/injection, schedule: Q01DX009 (ip), vehicle: water) 90 % of control; (dose: 50.0 mg/kg/injection, schedule: Q01DX009 (ip), vehicle: water) 113 % of control; (dose: 100.0 mg/kg/injection, schedule: Q01DX009 (ip), vehicle: water) 111 % of control.

As to `O=C(CCSCCCl)Nc1ccc(P(=O)(O)O)cc1`, the T/C was 94 % of control (dose: 3.13 mg/kg/injection, schedule: Q04DX003 (ip), vehicle: DMSO); 96 % of control (dose: 6.25 mg/kg/injection, schedule: Q04DX003 (ip), vehicle: DMSO); 104 % of control (dose: 12.5 mg/kg/injection, schedule: Q04DX003 (ip), vehicle: DMSO); 101 % of control (dose: 25.0 mg/kg/injection, schedule: Q04DX003 (ip), vehicle: DMSO); 104 % of control (dose: 50.0 mg/kg/injection, schedule: Q04DX003 (ip), vehicle: DMSO, evaluated on day 30); 120 % of control (dose: 50.0 mg/kg/injection, schedule: Q04DX003 (ip), vehicle: DMSO, evaluated on day 45). Further, the T/C by setting is: (dose: 100.0 mg/kg/injection, schedule: Q04DX003 (ip), vehicle: DMSO) 98 % of control; (dose: 200.0 mg/kg/injection, schedule: Q04DX003 (ip), vehicle: DMSO) 118 % of control.

Regarding `ClCCNc1nccnn1`, the T/C was 106 % of control (dose: 25.0 mg/kg/injection, schedule: Q01DX001 (ip), vehicle: saline); 100 % of control (dose: 50.0 mg/kg/injection, schedule: Q01DX001 (ip), vehicle: saline); 94 and 99 % of control (dose: 100.0 mg/kg/injection, schedule: Q01DX001 (ip), vehicle: saline). Also, the survivor count reads like this: (dose: 200.0 mg/kg/injection, schedule: Q01DX001 (ip), vehicle: saline) 0 of 6; (dose: 400.0 mg/kg/injection, schedule: Q01DX001 (ip), vehicle: saline) 0 of 6.

Take `COc1ccccc1N1CC=C(c2ccc(Cl)cc2)OP1(=O)Cl` (configuration not stated): the T/C runs as follows: (dose: 100.0 mg/kg/injection, schedule: Q04DX002 (ip), vehicle: saline with Tween-80) 100 % of control; (dose: 200.0 mg/kg/injection, schedule: Q04DX002 (ip), vehicle: saline with Tween-80) 100 % of control [5 of 6 alive]; (dose: 400.0 mg/kg/injection, schedule: Q04DX002 (ip), vehicle: saline with Tween-80) 100 % of control.
